Experimental data as given in PMC4359025.
No constants are given. Whether binding was seen depends on the method and setting. Binding seen in cells or lysates may run through a third protein. Binding can be weak; no strength is given. Where a sequence is shown, tags or fusion partners need not be part of it.

Molecular target: T1, Par-6 fused with Flag epitope (Par6::Flag) (Drosophila (fly)) (UniProt O97111)
T1 sequence: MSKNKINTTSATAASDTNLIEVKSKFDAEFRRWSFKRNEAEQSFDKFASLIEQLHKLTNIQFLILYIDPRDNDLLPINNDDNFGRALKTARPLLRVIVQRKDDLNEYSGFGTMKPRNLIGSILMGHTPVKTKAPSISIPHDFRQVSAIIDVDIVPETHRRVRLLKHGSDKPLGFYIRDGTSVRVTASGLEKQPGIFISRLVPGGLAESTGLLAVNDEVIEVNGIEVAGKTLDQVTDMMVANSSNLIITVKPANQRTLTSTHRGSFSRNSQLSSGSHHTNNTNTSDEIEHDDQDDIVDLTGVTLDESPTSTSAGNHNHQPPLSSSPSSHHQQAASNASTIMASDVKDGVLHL
Experiment: co-IP; S2 cell lysates transfected with control DNA, HA::Pbl, or HA::Pbl and Par6::FLAG; 5 ug anti-HA or anti-Flag antibody, Protein A/G magnetic beads; western blot with anti-Flag, anti-aPKC or anti-HA

## Pbl fused with HA epitope (Pbl::HA) (Drosophila (fly))
  binding: binds
